Reference: paper doi:10.64898/2025.12.17.694949, “Chiral inversion mutagenesis identifies geometrically constrained residues within self-associating low-complexity domains” (bioRxiv, 2025)
No constants are given. Whether binding was seen depends on the method and setting. Some results given as binding are weak or reduced against the parent protein; the word gives no strength.

Experiments:
[1] = target: synthetic NEFL head domain, wild-type (UniProt P07196); test: turbidity (absorbance at 395 nm); synthetic NEFL head domain 5xD ChIM library, 100 μM LCD (n=3); both purified
[2] = target: synthetic NEFL head domain, wild-type (UniProt P07196); test: SDS-PAGE (smearing from higher-order oligomers); SDS-PAGE characterization of the synthetic 5xD ChIM NEFL head domain library; both purified

- binding [1]: binds
- binding [2]: binds
B1: synthetic NEFL head domain, wild-type (domain or fragment, UniProt P07196 2-74)
chain: SSFSYEPYYSTSYKRRYVETPRVHISSVRCGYSTARSAYSSYSAPVSSSLSVRRSYSSSSGSLMPSLENLELS
